Reference: PubChem BioAssay AID445 (National Center for Advancing Translational Sciences (NCATS), 2006)
Some of the results follow. Shown are side measurements of this screen, not its main read-out; they come without a call. Compounds called inactive in the main read-out are mostly missing here. Words in brackets tell the shape of the fitted curve; partial curves, single points and poor fits give uncertain potencies.

Test: IkB Signaling
Conditions: ABC-DLBCL IkBa-CBG/CBR dual luciferase ratio (green luciferase fused to IkBa over red control in OCI-Ly3 lymphoma cells), 4 h
How it was run: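 Curves were fitted separately to fusion (green), unfused (red) and ratio luminescence, then classed by r2, magnitude and activity. Cells: OCI-Ly3, 4 h compound plus doxycycline at 37C; 10 uM MG-132 defined full response.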

[1] = measured here: control luc red channel unless noted

## CC1CCN(C(=O)c2c(NC(=O)c3ccccc3Cl)sc3c2CCC(C(C)(C)C)C3)CC1 (stereo not drawn)
[1]
  AC50: 2 µM [falling, partial curve]

## Cc1cc(C)cc(-n2ccnc2SCC(=O)Nc2cccc3ccccc23)c1
[1]
  AC50: 39.8 µM [falling, partial curve]

## O=C(c1cc2ccccc2oc1=O)N1CCN(Cc2ccc3c(c2)OCO3)CC1
[1]
  AC50: 10 µM [falling, partial curve]

## Cc1ccc(C(=O)C2CCN(CC(=O)Nc3ccc4c(c3)OCCO4)CC2)cc1
[1]
  AC50: 31.6 µM [falling, single point]

## Cc1cccc(-n2ccnc2SCC(=O)Nc2cccc3ccccc23)c1
[1]
  AC50: 0.00631 µM [falling, full curve, poor fit]

## O=C(c1cc2ccccc2o1)N1CCN(c2ccccc2Cl)CC1
[1]
  AC50: 25.1 µM [falling, partial curve]

## Cc1cc(C)cc(OCCSc2nc3ccc(NC(=O)c4ccc5c(c4)OCO5)cc3s2)c1
[1]
  AC50: 6.31 µM [falling, partial curve]

## CCc1ccc2[nH]cc(S(=O)(=O)c3ccc(C(C)C)cc3)c(=O)c2c1
[1]
  AC50: 2.51 µM [falling, full curve]

## Oc1ccccc1-c1nc(-c2cccs2)c(-c2cccs2)[nH]1
[1]
  AC50: 20 µM [falling, partial curve]

## COc1ccc(NC(=O)CCc2c(C)nc3c(c2C)c(=O)n(C)c(=O)n3C)c(OC)c1
[1]
  AC50: 3.16 µM [falling, single point]

## CCc1ccc2oc(C(=O)NCC(c3ccc(OC)cc3)N3CCCCC3)c(C)c2c1 (stereo not drawn)
[1]
  AC50: 31.6 µM [falling, single point]

## Cc1cc(NC(=O)C2CCN(S(=O)(=O)c3c(C)noc3C)CC2)ccc1Br
[1]
  AC50: 3.98 µM [falling, partial curve, poor fit]

## CC1=C(C(=O)Nc2cccnc2)C(c2ccc(F)cc2)n2nc(-c3cccc(C)c3)nc2N1 (stereo not drawn)
[1]
  AC50: 12.6 µM [falling, partial curve]

## O=C(Cn1c(=O)n(Cc2nc(-c3ccccc3)no2)c(=O)c2cc3c(cc21)OCO3)Nc1ccccc1
[1]
  AC50: 5.01 µM [falling, partial curve]

## Cc1cccc(-c2cc3nc4c(c(N5CCCC(O)C5)n3n2)CCC4)c1 (stereo not drawn)
[1]
  AC50: 12.6 µM [falling, partial curve]

## CCC(C)n1c(=O)c2sccc2n2c(CCCC(=O)N3CCN(c4ccccc4)CC3)nnc12 (stereo not drawn)
[1]
  AC50: 15.8 µM [falling, single point]

## COc1cccc(Cc2nc3ccccc3nc2SCC(=O)Nc2cccc(C)c2)c1
[1]
  AC50: 3.16 µM [falling, full curve]

## COc1ccc(CNC(=O)c2sc3nc4n(c(=O)c3c2C)CCCC4)cc1
[1]
  AC50: 10 µM [falling, partial curve]

## CC(C)c1ccc(NC(=O)CSC2=Nc3ccccc3C3=NC(CCC(=O)NC4CCCCC4)C(=O)N23)cc1 (stereo not drawn)
[1]
  AC50: 39.8 µM [falling, single point]

## Cn1cccc1CNC(=O)Nc1ccc(Cl)cc1
[1]
  AC50: 12.6 µM [falling, partial curve]

## COC(=O)c1cc(Nc2nc3ccccc3nc2NS(=O)(=O)c2ccc(C)cc2)ccc1Cl
[1]
  AC50: 0.316 µM [falling, full curve]

## Cc1ccc(CN(C(=O)c2ccc(C(C)(C)C)cc2)c2ccccn2)o1
[1]
  AC50: 25.1 µM [falling, single point]

## CC(C)CC(=O)Nc1ccc2nc(SCC(=O)N3CCc4ccccc43)sc2c1
[1]
  AC50: 6.31 µM [falling, full curve]

## CCOc1ccccc1CNC(=O)c1sc2ncccc2c1-n1cccc1
[1]
  AC50: 15.8 µM [falling, partial curve]

## CCn1ccc2cc(S(=O)(=O)N3CCCN(C(=O)Nc4ccccc4F)CC3)ccc21
[1]
  AC50: 15.8 µM [falling, partial curve, poor fit]

## CCCc1cc(=O)[nH]c(SCC(=O)N2CCN(c3ccc(F)cc3)CC2)n1
[1]
  AC50: 20 µM [falling, single point]

## O=C(CSc1nnc(-c2ccc3c(c2)OCO3)o1)Oc1ccccc1
[1]
  AC50: 39.8 µM [falling, single point]

## COc1ccc2nc(NC(=O)Cc3ccc(OC)c(S(=O)(=O)N4CCOCC4)c3)sc2c1
[1]
  AC50: 12.6 µM [falling, partial curve]

## CCOc1ccc(CC(=O)Nc2cccc(-c3nc4cccnc4s3)c2C)cc1
[1]
  AC50: 39.8 µM [falling, single point]

## Cc1ccc(-c2cn3cccnc3n2)cc1NC(=O)C(C)(C)Oc1ccc(Cl)cc1
[1]
  AC50: 39.8 µM [falling, single point]

## COc1cccc(NCc2cccn2-c2nnc(N3CCC(C)CC3)s2)c1
[1]
  AC50: 39.8 µM [falling, partial curve, poor fit]

## CCC(C)NC(=O)CN1C(=O)c2cccnc2Sc2ccccc21 (stereo not drawn)
[1]
  AC50: 7.94 µM [falling, full curve]

## Cc1noc(C)c1-c1ccc2ncnc(NC3CCNCC3)c2c1
[1]
  AC50: 5.01 µM [rising, partial curve] [measured here: IkB-luc green channel]

## NS(=O)(=O)c1ccc(N=Nc2cc3ccccc3c(C(=O)O)c2O)cc1
[1]
  AC50: 2.51 µM [falling, partial curve]

## Cc1cccc(Nc2ncnc3onc(-c4ccc(Cl)cc4)c23)c1C
[1]
  AC50: 0.316 µM [rising, single point]

## Cc1ccc(-c2nc3ccccc3[nH]2)s1
[1]
  AC50: 12.6 µM [falling, partial curve]

## COC(=O)c1ccc([C@@H]2Nc3c(OC)ccc(C)c3[C@@H]3C=CC[C@@H]32)cc1
[1]
  AC50: 15.8 µM [falling, single point]

## Cc1ccc(C(=O)OCC(=O)Nc2ccccc2)cc1NC(=O)c1ccco1
[1]
  AC50: 3.98 µM [falling, partial curve]

## COc1ccc(C(=O)Nc2cccc(C(=O)OCc3cc(=O)n4nc(C5CC5)sc4n3)c2)cc1
[1]
  AC50: 3.98 µM [falling, partial curve]

## Cc1nn(-c2ccccc2)c2[nH]c(C(F)(F)F)cc(=O)c12
[1]
  AC50: 25.1 µM [falling, partial curve]

## COc1cccc2c(=O)cc(C)n(CC(=O)Nc3ccc(C)c(C)c3)c12
[1]
  AC50: 10 µM [falling, partial curve]

## Cc1ccc2cc(C)c(N3CCN(c4ccccn4)CC3)nc2c1
[1]
  AC50: 20 µM [falling, partial curve]

## O=C(NCc1csc(-c2ccccc2)n1)c1ccco1
[1]
  AC50: 15.8 µM [falling, partial curve]

## CCOC(=O)c1ccc(NC(=O)c2cnn3c(=O)c4c(n(CC)c23)CCN(Cc2ccc(OC)cc2)C4)cc1
[1]
  AC50: 20 µM [falling, partial curve]

## CC1CCN(S(=O)(=O)N2CCC(C(=O)NCc3ccccc3Cl)CC2)CC1
[1]
  AC50: 10 µM [falling, partial curve]

## CC1=C(/C=C/C(C)=C/C=C/C(C)=C/CO)C(C)(C)CCC1
[1]
  AC50: 79.4 nM [rising, full curve, poor fit] [measured here: IkB-luc green channel]

## COC(=O)c1ccc(Nc2ncnc3c2cnn3C)cc1
[1]
  AC50: 0.631 µM [rising, full curve]

## COc1ccc(C2c3[nH]c4ccccc4c3CCN2C(=O)CCC2CCCC2)cc1 (stereo not drawn)
[1]
  AC50: 1.58 µM [falling, partial curve]

## Cc1ccsc1CCN1C(=O)N(c2ccccc2)C(=O)C1CC(=O)Nc1ccc(Cl)cc1 (stereo not drawn)
[1]
  AC50: 39.8 µM [falling, single point]

## COc1ccc(-c2nc3scc(CCNS(=O)(=O)c4ccc(Oc5ccccc5)cc4)n3n2)cc1OC
[1]
  AC50: 2.51 µM [rising, full curve]

## O=C(CNC(=O)c1ccccc1)OCc1cc(=O)n2nc(C3CCCCC3)sc2n1
[1]
  AC50: 0.126 µM [rising, full curve]

## CCN(CC)C(=O)c1sc2c(c1C)c(=O)n(Cc1ccccc1)c(=O)n2Cc1ccccc1C
[1]
  AC50: 25.1 µM [falling, partial curve]

## COC(=O)C1C(=O)C2=C(CC1C)NC(C)=C(C(=O)OCCOc1ccccc1)C2c1ccc(C)o1 (stereo not drawn)
[1]
  AC50: 10 µM [falling, partial curve]

## CC(=O)c1cccc(NC(=O)Nc2sc3nc4n(c(=O)c3c2C)CCC(C)CC4)c1 (stereo not drawn)
[1]
  AC50: 1 µM [falling, single point]

## COc1ccc(Cn2cc(S(=O)(=O)c3ccc(C)cc3)c(=O)c3cc(F)ccc32)cc1
[1]
  AC50: 39.8 µM [falling, single point]

## COc1ccc2c(CNCCc3ccc(SC)cc3)c(C(=O)O)n(Cc3ccc(F)cc3)c2c1
[1]
  AC50: 25.1 µM [falling, partial curve]

## Cc1cccc(CN2C(=O)c3ccccc3Sc3ccc(C(=O)NCc4ccco4)cc32)c1
[1]
  AC50: 12.6 µM [falling, partial curve]

## CCS(=O)(=O)c1ncc(Cl)c(C(=O)N2CCN(c3ccc(OC)cc3)CC2)n1
Measured here: IkB-luc green channel
  AC50: 5.01 µM [rising, single point]
Measured here: control luc red channel
  AC50: 7.94 µM [falling, full curve]

## O=c1c2ccccc2nc(/C=C/c2cccc3ccccc23)n1-c1ccc(F)cc1F
[1]
  AC50: 20 µM [falling, single point]

## CCC(CC)C(=O)Nc1nnc(S(=O)(=O)N2CCCCCC2)s1
[1]
  AC50: 2.51 µM [rising, full curve]

## CCC(Sc1nc2c(sc3ccccc32)c(=O)n1CCc1ccc(OC)c(OC)c1)C(=O)N(CC)CC (stereo not drawn)
[1]
  AC50: 10 µM [falling, partial curve]

## CCOc1ccc(NC(=O)CSC2=Nc3ccccc3C3=NC(CC(=O)NCc4cccs4)C(=O)N23)cc1 (stereo not drawn)
[1]
  AC50: 2 µM [falling, full curve, poor fit]
